PubChem BioAssay AID504774 – Drosophila RNAi Screening Center – 2011

Aim: 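Knock-downs that shift viability of MMS-exposed cells relative to untreated ones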 (primary screen)
System: Drosophila Kc167 cells
Knock-down reagent: long dsRNA against Drosophila genes, about 0.25 µg dsRNA per well
Time to read-out: about 6 days: 3 days knock-down, then 3 days with or without MMS
Conditions: methyl methanesulphonate 0.004% (w/v) for 3 days after knock-down
Measurement: 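ATP-dependent luminescence as a measure of live cells in MMS-exposed wells, quantile normalised within each plate, with replicate values also given as a mean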
Reading the numbers: mean viability with MMS and viability with MMS: higher = more surviving cells after MMS
In all, the deposit lists about 23,000 reagents; shown is an unselected part of those with a known target gene and a result. 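Values are quantile-normalised luminescence on an arbitrary scale; higher means more cells surviving MMS.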 The numbers tell different reagents against one gene apart. Further read-outs or replicates are left out here. Reagent sequences are not shown.

CG13634 — mean viability with MMS = 3.55e6; viability with MMS, replicate 1 = 3.95e6
shot #1 — mean viability with MMS = 3.62e6; viability with MMS, replicate 1 = 4.00e6
shot #2 — mean viability with MMS = 3.56e6; viability with MMS, replicate 1 = 4.01e6
shot #3 — mean viability with MMS = 3.81e6; viability with MMS, replicate 1 = 4.24e6
CG7131 — mean viability with MMS = 3.75e6; viability with MMS, replicate 1 = 4.28e6
CoRest #1 — mean viability with MMS = 3.38e6; viability with MMS, replicate 1 = 3.83e6
CoRest #2 — mean viability with MMS = 3.71e6; viability with MMS, replicate 1 = 4.19e6
CoRest #3 — mean viability with MMS = 2.86e6; viability with MMS, replicate 1 = 3.77e6
XRCC1 — mean viability with MMS = 3.57e6; viability with MMS, replicate 1 = 4.03e6
Pen — mean viability with MMS = 3.57e6; viability with MMS, replicate 1 = 4.06e6
Set — mean viability with MMS = 3.52e6; viability with MMS, replicate 1 = 3.99e6
CG16974 — mean viability with MMS = 3.80e6; viability with MMS, replicate 1 = 4.25e6
CG32276 — mean viability with MMS = 3.42e6; viability with MMS, replicate 1 = 3.88e6
CG6153 — mean viability with MMS = 3.61e6; viability with MMS, replicate 1 = 4.16e6
Vha44 #1 — mean viability with MMS = 3.20e6; viability with MMS, replicate 1 = 3.72e6
Vha44 #2 — mean viability with MMS = 3.56e6; viability with MMS, replicate 1 = 3.97e6
Gr28b #1 — mean viability with MMS = 3.44e6; viability with MMS, replicate 1 = 4.01e6
Gr28b #2 — mean viability with MMS = 3.42e6; viability with MMS, replicate 1 = 3.86e6
CG11997 — mean viability with MMS = 3.46e6; viability with MMS, replicate 1 = 3.91e6
CG18493 — mean viability with MMS = 3.63e6; viability with MMS, replicate 1 = 4.04e6
CG8701 — mean viability with MMS = 3.61e6; viability with MMS, replicate 1 = 4.12e6

Ordered by “viability with MMS, replicate 1” (low to high): some entries from above.
CG32276 — mean viability with MMS = 3.42e6; viability with MMS, replicate 1 = 3.88e6
Set — mean viability with MMS = 3.52e6; viability with MMS, replicate 1 = 3.99e6
Pen — mean viability with MMS = 3.57e6; viability with MMS, replicate 1 = 4.06e6
CG16974 — mean viability with MMS = 3.80e6; viability with MMS, replicate 1 = 4.25e6

Additional records follow.
Kdsr — mean viability with MMS = 1.72e6; viability with MMS, replicate 1 = 3.90e6
Ncoa6 #1 — mean viability with MMS = 2.27e6; viability with MMS, replicate 1 = 2.54e6
Ncoa6 #2 — mean viability with MMS = 3.57e6; viability with MMS, replicate 1 = 3.94e6
CG11127 — mean viability with MMS = 2.85e6; viability with MMS, replicate 1 = 2.21e6
eve — mean viability with MMS = 3.57e6; viability with MMS, replicate 1 = 4.02e6
CG30440 #1 — mean viability with MMS = 3.60e6; viability with MMS, replicate 1 = 4.04e6
CG30440 #2 — mean viability with MMS = 3.70e6; viability with MMS, replicate 1 = 4.18e6
CG30440 #3 — mean viability with MMS = 3.41e6; viability with MMS, replicate 1 = 3.78e6
CG30287 — mean viability with MMS = 3.34e6; viability with MMS, replicate 1 = 3.77e6
Art2 — mean viability with MMS = 3.44e6; viability with MMS, replicate 1 = 3.94e6
CG13170 — mean viability with MMS = 3.80e6; viability with MMS, replicate 1 = 4.82e6
pall — mean viability with MMS = 3.41e6; viability with MMS, replicate 1 = 3.98e6
Arp8 — mean viability with MMS = 3.95e6; viability with MMS, replicate 1 = 4.50e6
CG3309 — mean viability with MMS = 3.63e6; viability with MMS, replicate 1 = 4.00e6
